Test results from the RNAGym collection of RNA variant scans (doi:10.1126/science.aae0568).
This sample is rich in variants without activity.

B1: tRNA (parent)
chain: GUUCCGUUGGCGUAAUGGUAACGCGUCUCCCUCCUAAGGAGAAGACUGCGGGUUCGAGUCCCGUACGGAACG

Variants of: B1
Assay: yeast fitness relative to wild type (ratio to wild type); higher = fitter; tRNA-Arg(CCU), competitive growth, 37 C, YPD
How it was run: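 Amplicons of the tRNA-Arg(CCU) gene were sequenced, 100-nucleotide paired-end, from the start population and from each end population of a pooled yeast competition. The competition, in six parallel replicates, lasted 24 hours in YPD at 37°C. Fitness relative to wild type was calculated from changes in genotype frequencies. Genotypes had to have ≥ 100 starting reads, and estimates < 0.5 were set to 0.5.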

Row | Variant | yeast fitness
1 | GUUCCGUUGGCGUAAUGGUAGCGGGUCUCCCUCCUAGGGAGAAGACUGCGGGUUCGAGUACCGUACGGAGCG [A21G C24G A37G C60A A70G] | ≤ 0.5
2 | GUUCCGUUGGCGUAAUGGUAGCGCGUAUCCCUGCUAAGGAGAAGACUGCGGGUUCGAGUCCCGUACGGAACG [A21G C27A C33G] | ≤ 0.5
3 | GUUCCGUUGGCGUAAUGGUAGCGCGUCUUCCUCCUAAGGAGAAGACUGAGGGUUCGAGUCCCGUACGGAACG [A21G C29U C49A] | ≤ 0.5
4 | GUUCCGUUGGCGUAAUGGUAGCGCGUCUCCCUGCUAAGGGGAAGACUGCGGGUUUGAGUCCCGUACGGAACG [A21G C33G A40G C55U] | ≤ 0.5
5 | GUUCCGUUGGCGUAAUGGUAGCGCGUCUCCCUCCUAAGGAGAAGACUGAGGGUUCAAGUCCCGUACGGAACG [A21G C49A G56A] | 0.533
6 | GUUCCGUUGGCGUAAUGGUAGCGCGUCUCCCUCCUAAGGAGAAGACUGGGGGUUCCAGUCCCGUACGGAACG [A21G C49G G56C] | ≤ 0.5
7 | GUUCCGUUGGCGUAAUGGUAGCGCGUCUCCCUCCUAAGGAGAAGACUGCGGGUUUGAGUCCCGUACGGGACG [A21G C55U A69G] | ≤ 0.5
8 | GUUCCGUUGGCGUAAUGGUAGCGCGUCUCCCUCCUAAGGAGAAGACUGCGGGUUCGAGUCCGGUUCGGAACG [A21G C62G A65U] | ≤ 0.5
9 | GUUCCGUUGGCGUAAUGGUAGCACGUGUCCCUCCUAUGGAGAAAACUGUGGGUUCGAGUCCCGUUCGGAACG [A21G G23A C27G A37U G44A C49U A65U] | ≤ 0.5
10 | GUUCCGUUGGCGUAAUGGUAGCACGUUUCCCUCCUAAGGAGAACAGUGCGGGUUCGAGUCCAGUACGGAACG [A21G G23A C27U G44C C46G C62A] | ≤ 0.5
11 | GUUCCGUUGGCGUAAUGGUAGCACGUCUCCCUCCUAAGGAGAAGACUGCGGGUUGGAGUCCCGUAGGGAACG [A21G G23A C55G C66G] | ≤ 0.5
12 | GUUCCGUUGGCGUAAUGGUAGCGCAUCUCCCUCCUAAGGUGAAGACUGCGGCUUAGAGUCCCGUAGGGAACG [A21G G25A A40U G52C C55A C66G] | ≤ 0.5
13 | GUUCCGUUGGCGUAAUGGUAGCGCAUCUCCCUCCUAAGGAGAAGACUGCGGGUUCGAGUGCCGUACGGAACG [A21G G25A C60G] | ≤ 0.5
14 | GUUCCGUUGGCGUAAUGGUAGCGCGUCUCCCUCCUAAGGAGAAAACUGCGGGUUCGAGUCCCGUACGGCACG [A21G G44A A69C] | ≤ 0.5
15 | GUUCCGUUGGCGUAAUGGUAGCGCGUCUCCCUCCUAAGGAGAAGACUGCGCGUUCGAGUCCCGUACGCAACG [A21G G51C G68C] | ≤ 0.5
16 | GUUCCGUUGGCGUAAUGGUAGCGCGUCUCCCUCCUAAGGAGAAGACUGCGGACUCACGUCCCGUACGGUACG [A21G G52A U53C G56A A57C A69U] | ≤ 0.5
17 | GUUCCGUUGGCGUAAUGGUAGCGCGUCUCCCUCCUAAGGAGAAGACUGCGGGCUCGCGUCCCGUACGGAACG [A21G U53C A57C] | ≤ 0.5
18 | GUUCCGUUGGCGUAAUGGUAGCGCGUCUCCCUCCUAAGGAGAAGACUGCGGGCUCCAGUCCCGUACGGAACG [A21G U53C G56C] | ≤ 0.5
19 | GUUCCGUUGGCGUAAUGGUAUCGCGUCUCCCUCCUUAGGAGAAGGCUGCGGGUUCGAGUCCCGUGCGGAACG [A21U A36U A45G A65G] | ≤ 0.5

Row | Variant | yeast fitness
20 | GUUCCGUUGGCGUAAUGGUAUCGCGUCUCCCUCCUACGGAGAAGACUGCCGGUUCGAGUCCCGUACGGAACG [A21U A37C G50C] | ≤ 0.5
21 | GUUCCGUUGGCGUAAUGGUAUCGCGUCUCCCUCCUAAGGAGGAGACUGCGGGUUCGAGAACCGUACGGAACG [A21U A42G U59A C60A] | ≤ 0.5
22 | GUUCCGUUGGCGUAAUGGUAUCGCGUCUCGCUCCUAAGGAGAAGACUGCGGGAUCGAGUCCCGUACGGAACG [A21U C30G U53A] | ≤ 0.5
23 | GUUCCGUUGGCGUAAUGGUAUCGCGUCUCCCUACUAAGGAGAAGACUGCGGGUUCGAGUCCCGUACGGCACG [A21U C33A A69C] | ≤ 0.5
24 | GUUCCGUUGGCGUAAUGGUAUCGCGUCUCCCUGCUAAGGAGGAAACUGCGGGUUCGAGUCCCACACGGAACG [A21U C33G A42G G44A G63A U64C] | ≤ 0.5
25 | GUUCCGUUGGCGUAAUGGUAUCGCGUCUCCCUUCUAAGGAGGACACUGCGGGUUCGAGUCCCGUACGGAACG [A21U C33U A42G G44C] | ≤ 0.5
26 | GUUCCGUUGGCGUAAUGGUAUCACGUCUCCCUCCUAUGGAGAAGACUGCGGGUUCGAGUCCCGUACGGAACG [A21U G23A A37U] | ≤ 0.5
27 | GUUCCGUUGGCGUAAUGGUAUCACGUCUCCCUCCUAAGGAGAAGACUGAGGGUUCGAGUCCCGUACGGAACG [A21U G23A C49A] | ≤ 0.5
28 | GUUCCGUUGGCGUAAUGGUAUCGCGUCUCCCUCCUAAGGAGAAGACUCCGGGUUCGAGUCGAGUAUGGAACG [A21U G48C C61G C62A C66U] | ≤ 0.5
29 | GUUCCGUUGGCGUAAUGGUAUCGCGACUCCCUCCUACGGAGAAGACUGCGGGUUCGAGUCCCGUACGGAACG [A21U U26A A37C] | ≤ 0.5
30 | GUUCCGUUGGCGUAAUGGUAUCGCGUCUCCCACCUAAGGAGAAGACUGCGGGUUCGAGUCCCGUACGGAGCG [A21U U32A A70G] | ≤ 0.5
31 | GUUCCGUUGGCGUAAUGGUAUCGCGUCUCCCUCCCAAGGAGAAGACUGCGCGUUCGAGUCCCGUACGGAACG [A21U U35C G51C] | ≤ 0.5
32 | GUUCCGUUGGCGUAAUGGUAAAGCGUCUCCCUCCUAUGGAGAAGACUGCGGGUUCGAGUCCGAUACGGAACG [C22A A37U C62G G63A] | ≤ 0.5
33 | GUUCCGUUGGCGUAAUGGUAAAGAGCCUCCCUCCUAAGGAGAAGACUGCGGGUUCGAGUGUCGUACGGAACG [C22A C24A U26C C60G C61U] | ≤ 0.5
34 | GUUCCGUUGGCGUAAUGGUAAAGAGCCUCCCUCCUAAGGAGAAGACUGCGGGUUCGAGUCCCGUACGAAACG [C22A C24A U26C G68A] | ≤ 0.5
35 | GUUCCGUUGGCGUAAUGGUAAAGCGUAUCCCUUUUAAGCAGAAGACUGCGGGCUCGAGUCGCGUACGGAACG [C22A C27A C33U C34U G39C U53C C61G] | ≤ 0.5
36 | GUUCCGUUGGCGUAAUGGUAAAGCGUAUCCCUCCUAAGGAGAAGACUGCGGCUUCGAGUCCCGUACGGAACG [C22A C27A G52C] | ≤ 0.5
37 | GUUCCGUUGGCGUAAUGGUAAAGCGUUUCCCUCCUAAGGAGAAGACUGCGGGUUCACGUCCCGUACGGAACG [C22A C27U G56A A57C] | ≤ 0.5
